The record followed here is the supplement of paper PMC12067093, “Discovery and optimisation of a covalent ligand for TRIM25 and its application to targeted protein ubiquitination” (Chemical Science, 2025).

This is one part of the list.

This test has as its target T1, NTAN1_Q96AB6_75_DGSISILGSDDATTCHIVVLR (UniProt Q96AB6).
T1 sequence (whole entry): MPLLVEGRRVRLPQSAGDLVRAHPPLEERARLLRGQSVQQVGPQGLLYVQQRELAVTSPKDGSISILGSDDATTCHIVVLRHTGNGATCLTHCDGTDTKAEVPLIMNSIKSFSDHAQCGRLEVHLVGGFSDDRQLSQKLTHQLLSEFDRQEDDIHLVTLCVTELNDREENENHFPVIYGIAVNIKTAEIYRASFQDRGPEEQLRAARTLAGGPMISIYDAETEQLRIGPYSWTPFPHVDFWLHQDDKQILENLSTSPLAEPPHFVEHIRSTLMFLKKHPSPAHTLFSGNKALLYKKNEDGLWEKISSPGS
Nature of the test: probe-labelled cysteine peptide fold change vs DMSO (competition) (log2 fold change); higher = less target engagement (more negative = stronger competition). The note with it: THP-1, incubation time: 4 h.
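Also: competitive profiling in live THP-1 cells: cysteine peptides tagged with an iodoacetamide desthiobiotin (IA-DTB) probe, intensity after compound treatment relative to DMSO-treated cells.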

In the case of `Cc1cc(C(=O)N2CCCN(C(=O)CCl)CC2)ccc1-c1ccccc1` [compound 10], the “probe-labelled cysteine peptide fold change” value (10 µM) is -0.164 and the “probe-labelled cysteine peptide fold change” value (50 µM) is -0.305.
